Measurements reported in PubChem BioAssay AID504774 (Drosophila RNAi Screening Center, 2011).
The screen tested about 23,000 reagents; below is an unselected part of those with a known target gene and a result. 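Values are quantile-normalised luminescence on an arbitrary scale; higher means more cells surviving MMS.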 A plus sign joins genes that one reagent is predicted to hit. Further read-outs or replicates are left out here. No sequences are given here.

Screen: 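Knock-downs that shift viability of MMS-exposed cells relative to untreated ones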 (primary screen)
System: Drosophila Kc167 cells
Reagent: long dsRNA against Drosophila genes, about 0.25 µg dsRNA per well
Time to read-out: about 6 days: 3 days knock-down, then 3 days with or without MMS
Conditions: methyl methanesulphonate 0.004% (w/v) for 3 days after knock-down
Measurement: 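ATP-dependent luminescence as a measure of live cells in MMS-exposed wells, quantile normalised within each plate, with replicate values also given as a mean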
Scale: mean viability with MMS: higher = more surviving cells after MMS

Edem1 [DRSC18573]
- mean viability with MMS: 3.49e6

CG8001 [DRSC08611]
- mean viability with MMS: 3.60e6

sni [DRSC17770]
- mean viability with MMS: 3.57e6

Polr3C [DRSC14490]
- mean viability with MMS: 3.41e6

ERR [DRSC10840]
- mean viability with MMS: 3.44e6

dec [DRSC18759]
- mean viability with MMS: 3.33e6

dec [DRSC21477]
- mean viability with MMS: 3.58e6

CG17977 [DRSC06700]
- mean viability with MMS: 3.64e6

CG5715 [DRSC15860]
- mean viability with MMS: 3.57e6

Hsp26 [DRSC11189]
- mean viability with MMS: 3.61e6

CG14384 [DRSC14842]
- mean viability with MMS: 3.46e6

Gr43a [DRSC06658]
- mean viability with MMS: 3.55e6

Ephrin [DRSC17165]
- mean viability with MMS: 3.57e6

CG13545 [DRSC04187]
- mean viability with MMS: 3.52e6

CG12375 [DRSC02163]
- mean viability with MMS: 3.51e6

Single entries from the entries so far.
Under “mean viability with MMS”, Ephrin [DRSC17165] is entered as 3.57e6
Under “mean viability with MMS”, CG17977 [DRSC06700] is entered as 3.64e6
For “mean viability with MMS”, Hsp26 [DRSC11189] has 3.61e6
CG8001 [DRSC08611], mean viability with MMS: 3.60e6

The listing continues.
Mvk + CG33672 + spt4 [DRSC05356]
- mean viability with MMS: 3.45e6

Mvk + CG33672 + spt4 [DRSC06628]
- mean viability with MMS: 3.46e6

Aps [DRSC10629]
- mean viability with MMS: 3.66e6

CG1304 [DRSC20494]
- mean viability with MMS: 3.56e6

CG18662 [DRSC02691]
- mean viability with MMS: 3.76e6

CG41020 (retired record) [DRSC20866]
- mean viability with MMS: 2.43e6

l(2)05714 [DRSC03118]
- mean viability with MMS: 3.57e6

Fer2LCH [DRSC16672]
- mean viability with MMS: 3.91e6

CG13049 [DRSC09930]
- mean viability with MMS: 3.55e6

CG31808 [DRSC22962]
- mean viability with MMS: 3.60e6

CG14229 [DRSC19585]
- mean viability with MMS: 3.39e6

CG14229 [DRSC23149]
- mean viability with MMS: 3.34e6

CG31804 [DRSC22728]
- mean viability with MMS: 3.65e6

Pdxk [DRSC10419]
- mean viability with MMS: 3.41e6

CG32202 [DRSC09989]
- mean viability with MMS: 3.58e6

Reck [DRSC10504]
- mean viability with MMS: 3.74e6

Reck [DRSC10505]
- mean viability with MMS: 3.56e6

CG13310 [DRSC09981]
- mean viability with MMS: 3.46e6

CG11854 [DRSC14409]
- mean viability with MMS: 3.46e6

Gr23a [DRSC00410]
- mean viability with MMS: 3.50e6

CG15029 (retired record) [DRSC19610]
- mean viability with MMS: 3.41e6

CG10553 [DRSC14254]
- mean viability with MMS: 3.46e6

hec [DRSC19895]
- mean viability with MMS: 3.67e6

SLIRP1 + anox [DRSC20542]
- mean viability with MMS: 3.56e6

PGS1 [DRSC16304]
- mean viability with MMS: 3.54e6

Cpr31A [DRSC02779]
- mean viability with MMS: 3.43e6

Shrm [DRSC06437]
- mean viability with MMS: 3.39e6

Shrm [DRSC06438]
- mean viability with MMS: 3.46e6

Shrm [DRSC07221]
- mean viability with MMS: 3.60e6

Shrm [DRSC23067]
- mean viability with MMS: 3.25e6
